Where a chain is given by its changes, count along the chain named. No constants are given. Whether binding was seen depends on the method and setting. Binding seen in cells or lysates may run through a third protein. Some entries that bind do so weakly or less than the wild type. For some of these results: Where a sequence is shown, tags or fusion partners need not be part of it. One block for each binder: values may come before it.
Assays:
[1] = target: T1, endogenous Prep1 from mouse ovarian cytosolic extracts (mouse (endogenous in mouse ovary)) (UniProt O70477); assay: co-IP; anti-Prep1 antibody beads on cytosolic ovarian cell extract; IP buffer 20 mM HEPES-KOH pH 7.6, 200 mM KCl, 0.5 mM EDTA, 10% glycerol, 0.5% Triton X-100; 1 h at 4°C; blot for 4EHP; no difference with or without RNase A (data not shown)
T1 sequence: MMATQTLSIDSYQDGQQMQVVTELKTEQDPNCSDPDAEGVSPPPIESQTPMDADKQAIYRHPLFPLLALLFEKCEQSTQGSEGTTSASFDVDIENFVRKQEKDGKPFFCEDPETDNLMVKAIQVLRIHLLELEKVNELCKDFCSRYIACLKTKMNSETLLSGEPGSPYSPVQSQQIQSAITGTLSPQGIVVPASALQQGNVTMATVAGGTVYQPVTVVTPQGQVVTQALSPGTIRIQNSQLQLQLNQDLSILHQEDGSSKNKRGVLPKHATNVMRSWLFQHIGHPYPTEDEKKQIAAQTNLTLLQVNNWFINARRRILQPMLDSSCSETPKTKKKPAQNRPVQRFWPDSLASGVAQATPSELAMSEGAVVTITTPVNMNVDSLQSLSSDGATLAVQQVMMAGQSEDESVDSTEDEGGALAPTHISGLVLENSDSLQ

[2] = target: T2, GST-Prep1 Y-L mutant (Y59A and L66A) (mouse) (UniProt O70477); assay: pull-down; GST-Prep1 Y-L mutant with 4EHP; data not shown; source of 4EHP not told; only the target purified
T2 sequence: T1 sequence with Y59A, L66A

[3] = target: T3, Prep1-GST fusion protein (mouse) (UniProt O70477); assay: pull-down; GST-fusion protein beads with cytosolic ovarian extracts; pulled-down endogenous protein detected by immunoblot; GST alone as negative control; only the target purified
T3 sequence: T1 sequence

[4] = target: T4, GST-Prep1 Y-LL mutant (Y59, L66 and L67 to alanine) (mouse) (UniProt O70477); assay: as above
T4 sequence: T1 sequence with Y59A, L66A, L67A

[5] = target: T3, Prep1-GST fusion protein (mouse); assay: pull-down; GST-fusion protein beads with in vitro-translated 35S-Met-labelled protein; GST beads as negative control; only the target purified
[6] = target: T5, 4EHP-GST fusion protein (mouse) (UniProt Q8BMB3); assay: as above
T5 sequence: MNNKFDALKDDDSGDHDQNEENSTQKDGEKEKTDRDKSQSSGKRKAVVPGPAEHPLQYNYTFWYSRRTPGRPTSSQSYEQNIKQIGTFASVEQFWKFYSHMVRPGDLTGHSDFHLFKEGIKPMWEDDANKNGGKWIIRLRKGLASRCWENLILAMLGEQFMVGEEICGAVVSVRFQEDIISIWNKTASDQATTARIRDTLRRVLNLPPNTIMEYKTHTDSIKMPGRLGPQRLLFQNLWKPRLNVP

[7] = target: T5, 4EHP-GST fusion protein (mouse); assay: pull-down; GST-fusion protein beads with cytosolic ovarian extracts; pulled-down endogenous protein detected by immunoblot; GST alone as negative control; only the target purified

B3: in vitro-translated 35S-Met-Prep1 (protein, UniProt O70477 1-436)
chain: T1 sequence
modifications: 35S-methionine label
- binding [6]: binds

B4: endogenous Prep1 from mouse ovarian cytosolic extracts (protein, UniProt O70477 1-436)
chain: T1 sequence
- binding [7]: binds

Other lines, results leading:

- binding [1]: binds
- binding [2]: binds
- binding [3]: binds
- binding [4]: binds weakly
B1: endogenous 4EHP (eukaryotic translation initiation factor 4E homolog protein) from mouse ovarian cytosolic extracts (protein, UniProt Q8BMB3 1-245)
chain: T5 sequence

- binding [5]: binds
B2: in vitro-translated 35S-Met-4EHP (protein, UniProt Q8BMB3 1-245)
chain: T5 sequence
modifications: 35S-methionine label

— PMC2664923
